The text below walks through data of PubChem BioAssay AID504706 (National Center for Advancing Translational Sciences (NCATS), 2011).

Molecules are shown by their SMILES. In all, about 320,000 compounds went through this assay and about 200 (0.062%) were called active. Another 6% or so got no clear call; they are omitted. The call rests on the fitted dose curve; in most records, active means well fitted activation curve with a large enough effect; inconclusive means small, poorly fitted or top-dose-only effect; inactive means no such curve, though single readings can be large or run the other way. The list shows a part of the results, in another mix than the full data. Entries without a call were filed so in the source.
Potency means the concentration at half of the fitted maximal effect.

The test is described as follows: qHTS assay for re-activators of p53 using a Luc reporter. Further: nearly all actives have a fitted effect of over 45% in size. On activity change, positive = activation: % of control where 0% means no effect. The following applies: H1299 p53-A138V BP100-luciferase reporter, luminescence, 24 h; activity change, positive = activation: at 92.2 µM (top of the series). The method in brief:
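p53-null H1299 cells stably carrying temperature-sensitive p53-A138V and a BP100-luciferase reporter were pinned with compounds (4-point, 1:5 series) and held 24 hrs at 37 deg C. Luminescence was read 10 min after detection reagent.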
Take `COC(=O)c1ccc(NN=Nc2ccc(C)cc2)cc1`: the activity change, positive = activation was 37.1%.
The same measure, in the same setting: the figure for `COc1ccc2ccc3c(c2c1)N=CC1(O3)N(C)c2ccccc2C1(C)C` (configuration not stated) is inactive: -31.5%.
On to `Cc1ccc2nc(-c3ccc(NC(=O)COC(=O)c4ccc([N+](=O)[O-])o4)cc3)sc2c1`, for which the Potency was active: 3.16 µM.
On to `CCCn1c(C)cc(C(=O)CSc2nc3ccccc3c(=O)n2Cc2ccco2)c1C`, for which the Potency is active: 25.1 µM.
On to `O=C(O)CCCC(=O)NCCc1ccncc1`, for which the activity change, positive = activation was 39.4%.
Take `Cc1cccc(NC(=O)CCCN=C2NS(=O)(=O)c3ccccc32)c1C`: the activity change, positive = activation was determined as 23.2%.
Turning to `Cc1nn(-c2ccccc2)c(C)c1/C=N/Nc1nc2ccccc2[nH]1`, the activity change, positive = activation amounted to 1.69%.
For the compound `COc1ccc(C(=O)c2c(C(F)(F)F)oc3c2C(=O)c2ccccc2C3=O)cc1OC`, the “activity change, positive = activation” value was inactive: -15.5%.
As to `CN1c2ccccc2C(C)(C)C12C=Nc1c(ccc3ccccc13)O2` (configuration not stated), the “activity change, positive = activation” value was inactive: -30.3%.
The same measure, in the same setting: the figure for `N#Cc1cc2c(nc1SCc1nc3ccccc3[nH]1)CCC2` is 83%; for `COc1ccc(-c2cc3cc(F)ccc3cn2)cc1` it is 39.2%.
As to `CNS(=O)(=O)c1cccc(C(=O)OCC(=O)Nc2sc3c(c2C#N)CCCCC3)c1`, the activity change, positive = activation came out at 53.3%.
For `Cn1c(SCCOc2ccc(Cl)cc2)nnc1-c1ccncc1`, the “activity change, positive = activation” value was inactive: -33.4%.
Still for that read-out and setting: for `O=c1c2c3c(sc2nc2n1CCCCC2)CCCCC3` the value was 46.4%; for `Nc1cc(N)nc(SCc2ccccc2)n1`, 34.5%.
With `Cc1ccc2nc(-c3ccc(NC(=O)CN4C(=O)NC(C)(c5ccc(OC(F)F)cc5)C4=O)cc3)sc2c1` (configuration not stated), the activity change, positive = activation worked out at 63%.
The same measure, in the same setting: the figure for `Cc1cccc(NC(=S)NNC(=O)COc2ccc(Cl)cc2Cl)c1` is 34.3%; for `Cc1ccc(N2C(=O)C(Cl)=C(NCc3ccccc3)C2=O)c(C)c1` it is 62.8%; for `CCOc1ccc(C(NC(=O)CC)c2c(O)ccc3ccccc23)cc1` (configuration not stated) it is inactive: -64.7%.
On to `CCOC(=O)c1csc(NC(=O)CSc2nnnn2-c2cccc(OC)c2)n1`, for which the activity change, positive = activation turned out to be 34.4%.
The same measure, in the same setting: for `C=CCc1c(Cl)nc(C)nc1NCc1ccccc1` the value was inactive: -31.2%.
Regarding `COc1cc(/C=C/C(=O)c2ccc(C)cc2)ccc1OCC#N`, the “activity change, positive = activation” value was inactive: -28%.
The same measure, in the same setting: the figure for `O=C(O)c1cccc(-n2cc(-c3cccc(C(F)(F)F)c3)cn2)c1` is 37%; for `COc1cccc(Nc2nc(NCC3CCCO3)c3ccccc3n2)c1` (configuration not stated) it is 53.1%; for `COC1(OC)C(/C=C/c2ccc(Cl)cc2)C(C#N)(C#N)C1(OC)OC` (configuration not stated) it is inactive: -35.1%.
Take `COc1cc(C(Nc2ccccn2)c2ccc3ccc(C)nc3c2O)cc(OC)c1O` (configuration not stated): the “activity change, positive = activation” value is inactive: -30.2%.
Turning to `Cc1c(C(=O)OC2CCC(C)CC2)[nH]c2c1C(=O)CCC2` (configuration not stated), the activity change, positive = activation amounted to 148%.
Same read-out and setting: for `COc1cc(OC)nc(-n2ncc(Br)c(Br)c2=O)n1` the value was inactive: -35.4%.
With `CCCCn1c(SCC(=O)NCc2ccco2)nc2ccc(N3CCOCC3)cc2c1=O`, the “activity change, positive = activation” value was inactive: -10.1%.
Same read-out and setting: the figure for `COc1ccc(C(=O)COC(=O)c2ccccc2O)c(OC)c1` is 49.8%; for `Cc1ccc(C)c(N2CCN(c3cnn(-c4nc5ccccc5s4)c(=O)c3Cl)CC2)c1` it is 226%.
Take `CCOC(=O)c1ccccc1N/C=C/C(=O)c1cccs1`: the Potency was active: 15.8 µM.
With `N#Cc1cccc(N=Cc2c(O)ccc3ccccc23)c1`, the activity change, positive = activation came out at 210%.
Turning to `CCOc1ccccc1NC(=O)Cn1nnc(C(=O)NCc2cccs2)c1N`, the activity change, positive = activation stood at 57.3%.
Regarding `c1ccc2oc(SCc3cn4ccccc4n3)nc2c1`, the activity change, positive = activation was 37.4%.
The same measure, in the same setting: for `COc1ccc(N2CCN(C(=O)COC(=O)c3ccc(OC(F)F)cc3)CC2)cc1` the value was 38.4%.
With `Cc1ccc(NC2=CC(=O)C(=O)c3ccccc32)cc1`, the “activity change, positive = activation” value is inactive: -36.3%.
On to `COCCNc1nc2sc3c(c2c(=O)n1Cc1ccco1)CCCCC3`, for which the activity change, positive = activation worked out at 40.1%.
Same read-out and setting: for `Cn1c(C(=O)NN)cc2cc(Oc3ccccc3)ccc21` the value was inactive: -39.5%; for `O=C(O)c1cc2nc3c(c(C(F)(F)F)n2n1)CCc1ccccc1-3`, 27.2%; for `Cc1ccnc(NC(=O)/C=C/c2cccs2)c1`, 106%.
Still for that read-out and setting: for `COc1ccc2nc(-c3ccccc3)[nH]c2c1` the value was 25.1%.
`CCOc1ccccc1/C=C/c1nc2ccccc2[nH]c1=O`: the “activity change, positive = activation” value is inactive: -47.9%.
Take `COc1ccccc1N/C=C/c1onc(C)c1[N+](=O)[O-]`: the activity change, positive = activation turned out to be 34.2%.
Consider `COc1ccc(CNC(=O)c2ccc(CNc3c(NC4CCCCC4)c(=O)c3=O)cc2)cc1`, for which the activity change, positive = activation turned out to be 47.9%.
With `CCn1nnc(-c2ccccc2NS(=O)(=O)c2ccc(S(=O)(=O)N3CCCCCC3)cc2)n1`, the activity change, positive = activation came to 45.5%.
On the same count and under the same terms, for `N#C/C(=C/c1ccc(N2CCOCC2)o1)c1nc2ccccc2[nH]1` the value was 49.4%; for `O=C(NCC1OCCc2ccccc21)c1ccc(NC(=O)c2ccc(Cl)cc2)cc1` (configuration not stated), inactive: -43.3%.
Same read-out and setting: for `Cc1cc(O)c(C2(C(F)(F)F)NCCNC2=O)cc1C` (configuration not stated) the value was 31.4%; for `O=C1C=CC(=O)N1CCCCCCN1C(=O)C=CC1=O`, -47.4%.
`CNC(=O)N(c1ccccc1)c1ccccc1`: the activity change, positive = activation worked out at 32.3%.
On to `CN(C)c1ccc(-c2cc3ccccc3c(=O)o2)cc1`, for which the activity change, positive = activation turned out to be 52.1%.
Still for that read-out and setting: the figure for `Clc1cccc(-c2nnc(-c3ccccc3)o2)c1` is 39.3%; for `C/C(=C\C(=O)c1ccc(F)cc1)NCc1ccc2c(c1)OCO2` it is 22.2%.
On the same count and under the same terms, the figure for `COc1ccc(NC(=O)c2ccc(CN3CCc4ccccc4C3)cc2)cc1OC` is inactive: -27%; for `CCNC(=O)N1C(CC(=O)OCC)C(=O)NC2CCCCC21` (configuration not stated) it is 36.6%; for `CS(=O)(=O)c1nc(-c2cccs2)cc(C(F)(F)F)n1` it is inactive: -30.6%.
